This passage reports binding results from paper PMC4666396.

The chains behind the UniProt entries cited, without tags or fusion partners.
UniProt P25440: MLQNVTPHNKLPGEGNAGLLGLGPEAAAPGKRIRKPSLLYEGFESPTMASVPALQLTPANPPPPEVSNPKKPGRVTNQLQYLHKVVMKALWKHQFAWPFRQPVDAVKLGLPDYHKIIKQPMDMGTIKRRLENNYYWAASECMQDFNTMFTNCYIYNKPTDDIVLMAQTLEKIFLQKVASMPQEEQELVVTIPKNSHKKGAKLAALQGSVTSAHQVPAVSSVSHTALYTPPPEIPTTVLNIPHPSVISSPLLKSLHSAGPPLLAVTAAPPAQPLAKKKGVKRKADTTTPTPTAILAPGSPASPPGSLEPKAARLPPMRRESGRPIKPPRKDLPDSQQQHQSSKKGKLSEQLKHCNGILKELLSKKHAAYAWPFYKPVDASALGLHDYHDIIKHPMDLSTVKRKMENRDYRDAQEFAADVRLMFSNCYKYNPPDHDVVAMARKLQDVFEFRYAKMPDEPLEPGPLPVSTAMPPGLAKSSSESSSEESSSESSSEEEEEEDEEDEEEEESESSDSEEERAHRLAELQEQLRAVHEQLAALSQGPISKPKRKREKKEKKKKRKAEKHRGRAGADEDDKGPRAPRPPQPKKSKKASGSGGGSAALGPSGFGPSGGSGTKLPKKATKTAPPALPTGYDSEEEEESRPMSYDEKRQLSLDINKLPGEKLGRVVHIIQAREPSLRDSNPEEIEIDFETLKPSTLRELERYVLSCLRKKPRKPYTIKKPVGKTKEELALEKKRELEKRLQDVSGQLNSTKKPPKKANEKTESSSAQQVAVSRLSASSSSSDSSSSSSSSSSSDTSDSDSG
UniProt O43447: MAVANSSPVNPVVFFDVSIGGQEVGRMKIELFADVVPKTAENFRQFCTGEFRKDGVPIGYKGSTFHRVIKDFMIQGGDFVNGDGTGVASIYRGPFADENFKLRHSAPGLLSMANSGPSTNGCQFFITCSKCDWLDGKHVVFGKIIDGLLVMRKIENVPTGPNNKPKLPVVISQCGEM
UniProt Q99613: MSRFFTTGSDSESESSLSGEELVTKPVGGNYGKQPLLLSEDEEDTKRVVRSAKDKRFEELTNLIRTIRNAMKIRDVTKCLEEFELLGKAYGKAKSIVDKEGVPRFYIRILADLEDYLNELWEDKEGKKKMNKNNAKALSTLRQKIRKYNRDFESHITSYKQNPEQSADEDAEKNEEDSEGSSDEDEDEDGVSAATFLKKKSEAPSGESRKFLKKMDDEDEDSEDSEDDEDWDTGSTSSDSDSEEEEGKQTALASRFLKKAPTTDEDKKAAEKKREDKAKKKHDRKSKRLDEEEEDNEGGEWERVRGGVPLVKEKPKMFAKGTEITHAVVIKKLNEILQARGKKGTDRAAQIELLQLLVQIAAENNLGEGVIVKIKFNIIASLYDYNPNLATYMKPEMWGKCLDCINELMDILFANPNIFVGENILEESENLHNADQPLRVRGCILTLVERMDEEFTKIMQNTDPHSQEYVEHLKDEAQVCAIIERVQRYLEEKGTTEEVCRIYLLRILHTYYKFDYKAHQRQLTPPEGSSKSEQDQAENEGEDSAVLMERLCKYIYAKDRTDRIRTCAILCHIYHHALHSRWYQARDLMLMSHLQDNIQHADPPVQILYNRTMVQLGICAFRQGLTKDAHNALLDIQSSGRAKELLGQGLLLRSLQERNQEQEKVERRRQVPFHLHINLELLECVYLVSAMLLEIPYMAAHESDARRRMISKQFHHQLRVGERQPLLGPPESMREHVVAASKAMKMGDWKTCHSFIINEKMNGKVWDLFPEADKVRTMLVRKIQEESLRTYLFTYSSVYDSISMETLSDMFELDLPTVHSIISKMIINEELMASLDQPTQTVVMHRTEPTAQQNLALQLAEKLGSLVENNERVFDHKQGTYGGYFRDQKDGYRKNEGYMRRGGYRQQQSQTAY
UniProt Q96SB4: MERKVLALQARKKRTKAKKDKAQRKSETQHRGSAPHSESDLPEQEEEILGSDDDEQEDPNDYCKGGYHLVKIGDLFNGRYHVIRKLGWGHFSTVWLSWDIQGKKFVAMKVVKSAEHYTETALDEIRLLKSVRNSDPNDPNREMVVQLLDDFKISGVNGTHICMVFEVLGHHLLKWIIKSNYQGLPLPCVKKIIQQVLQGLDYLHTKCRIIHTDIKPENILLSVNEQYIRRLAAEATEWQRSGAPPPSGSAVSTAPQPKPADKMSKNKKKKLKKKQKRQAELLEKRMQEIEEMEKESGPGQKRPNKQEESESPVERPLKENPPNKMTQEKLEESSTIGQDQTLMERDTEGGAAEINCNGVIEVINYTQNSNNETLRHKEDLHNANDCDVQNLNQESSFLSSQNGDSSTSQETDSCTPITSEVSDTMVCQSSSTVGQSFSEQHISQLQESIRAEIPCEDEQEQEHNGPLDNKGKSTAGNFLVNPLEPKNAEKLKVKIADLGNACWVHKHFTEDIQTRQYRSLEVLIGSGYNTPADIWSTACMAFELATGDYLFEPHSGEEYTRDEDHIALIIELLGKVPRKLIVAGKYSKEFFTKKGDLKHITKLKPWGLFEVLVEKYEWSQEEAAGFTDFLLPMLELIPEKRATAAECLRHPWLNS
UniProt P62304: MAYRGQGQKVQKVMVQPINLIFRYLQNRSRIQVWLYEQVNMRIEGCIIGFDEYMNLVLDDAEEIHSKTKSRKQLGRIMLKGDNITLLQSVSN
UniProt P62308: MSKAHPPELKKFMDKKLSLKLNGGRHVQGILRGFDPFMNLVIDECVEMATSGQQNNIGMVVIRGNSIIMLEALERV
UniProt P09012: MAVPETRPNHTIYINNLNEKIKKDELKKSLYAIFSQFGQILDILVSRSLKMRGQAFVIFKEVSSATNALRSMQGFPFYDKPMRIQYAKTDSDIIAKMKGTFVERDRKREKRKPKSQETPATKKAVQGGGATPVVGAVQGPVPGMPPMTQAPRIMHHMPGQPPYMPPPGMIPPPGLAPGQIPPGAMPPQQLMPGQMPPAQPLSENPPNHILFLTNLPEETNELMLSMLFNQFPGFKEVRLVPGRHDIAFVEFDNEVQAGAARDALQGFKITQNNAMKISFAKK
UniProt P08621: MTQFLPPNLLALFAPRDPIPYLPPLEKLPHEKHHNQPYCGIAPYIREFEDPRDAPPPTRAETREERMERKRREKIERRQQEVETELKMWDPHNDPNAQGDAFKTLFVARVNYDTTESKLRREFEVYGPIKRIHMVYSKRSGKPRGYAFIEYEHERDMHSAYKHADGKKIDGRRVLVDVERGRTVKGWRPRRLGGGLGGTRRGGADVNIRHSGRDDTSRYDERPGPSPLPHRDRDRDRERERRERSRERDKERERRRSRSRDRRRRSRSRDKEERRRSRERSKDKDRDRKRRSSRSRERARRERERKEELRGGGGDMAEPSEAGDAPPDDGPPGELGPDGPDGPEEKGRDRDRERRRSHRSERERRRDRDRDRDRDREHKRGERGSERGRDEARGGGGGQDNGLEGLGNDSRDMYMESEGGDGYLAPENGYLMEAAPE
UniProt Q96KR1: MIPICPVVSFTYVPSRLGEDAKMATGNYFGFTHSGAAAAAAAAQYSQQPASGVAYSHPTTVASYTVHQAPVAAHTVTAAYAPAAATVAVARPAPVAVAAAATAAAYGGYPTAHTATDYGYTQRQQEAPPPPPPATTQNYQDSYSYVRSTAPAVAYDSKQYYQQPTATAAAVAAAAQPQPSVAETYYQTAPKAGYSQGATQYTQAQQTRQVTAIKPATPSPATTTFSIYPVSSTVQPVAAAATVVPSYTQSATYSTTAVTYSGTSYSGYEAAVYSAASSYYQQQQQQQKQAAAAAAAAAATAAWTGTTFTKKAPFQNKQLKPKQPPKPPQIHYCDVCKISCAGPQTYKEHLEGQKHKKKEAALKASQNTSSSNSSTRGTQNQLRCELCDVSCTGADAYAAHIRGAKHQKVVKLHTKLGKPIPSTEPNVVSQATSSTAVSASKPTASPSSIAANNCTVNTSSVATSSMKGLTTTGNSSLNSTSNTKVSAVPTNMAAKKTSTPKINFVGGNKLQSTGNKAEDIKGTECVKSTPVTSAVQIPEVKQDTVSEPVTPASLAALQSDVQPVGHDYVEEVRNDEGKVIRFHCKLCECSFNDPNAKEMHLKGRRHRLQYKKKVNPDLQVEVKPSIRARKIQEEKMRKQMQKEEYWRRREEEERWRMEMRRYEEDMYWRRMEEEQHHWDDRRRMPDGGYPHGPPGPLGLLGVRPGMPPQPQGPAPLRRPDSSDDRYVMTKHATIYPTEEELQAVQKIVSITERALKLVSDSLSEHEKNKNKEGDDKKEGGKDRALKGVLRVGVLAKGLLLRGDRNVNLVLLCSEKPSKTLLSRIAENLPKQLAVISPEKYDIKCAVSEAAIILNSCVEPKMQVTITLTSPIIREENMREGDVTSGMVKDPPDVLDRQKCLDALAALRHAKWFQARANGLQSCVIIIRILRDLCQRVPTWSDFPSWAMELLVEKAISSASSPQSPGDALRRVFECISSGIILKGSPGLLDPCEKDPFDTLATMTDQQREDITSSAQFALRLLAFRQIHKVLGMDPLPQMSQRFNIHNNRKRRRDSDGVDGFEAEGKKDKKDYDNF
UniProt O43670: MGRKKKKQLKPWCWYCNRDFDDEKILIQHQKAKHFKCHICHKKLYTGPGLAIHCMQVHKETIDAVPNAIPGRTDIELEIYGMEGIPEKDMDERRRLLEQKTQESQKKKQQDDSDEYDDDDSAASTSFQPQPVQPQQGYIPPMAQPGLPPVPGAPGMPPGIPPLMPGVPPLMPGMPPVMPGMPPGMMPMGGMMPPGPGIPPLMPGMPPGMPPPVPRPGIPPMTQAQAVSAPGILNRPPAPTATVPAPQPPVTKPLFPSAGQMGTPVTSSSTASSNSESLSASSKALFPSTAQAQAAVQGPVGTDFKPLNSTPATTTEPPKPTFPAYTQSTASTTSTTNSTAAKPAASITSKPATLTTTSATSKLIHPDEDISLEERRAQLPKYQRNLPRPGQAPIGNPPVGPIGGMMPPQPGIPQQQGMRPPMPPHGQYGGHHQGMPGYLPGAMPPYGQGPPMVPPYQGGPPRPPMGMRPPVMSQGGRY
UniProt Q9BUQ8: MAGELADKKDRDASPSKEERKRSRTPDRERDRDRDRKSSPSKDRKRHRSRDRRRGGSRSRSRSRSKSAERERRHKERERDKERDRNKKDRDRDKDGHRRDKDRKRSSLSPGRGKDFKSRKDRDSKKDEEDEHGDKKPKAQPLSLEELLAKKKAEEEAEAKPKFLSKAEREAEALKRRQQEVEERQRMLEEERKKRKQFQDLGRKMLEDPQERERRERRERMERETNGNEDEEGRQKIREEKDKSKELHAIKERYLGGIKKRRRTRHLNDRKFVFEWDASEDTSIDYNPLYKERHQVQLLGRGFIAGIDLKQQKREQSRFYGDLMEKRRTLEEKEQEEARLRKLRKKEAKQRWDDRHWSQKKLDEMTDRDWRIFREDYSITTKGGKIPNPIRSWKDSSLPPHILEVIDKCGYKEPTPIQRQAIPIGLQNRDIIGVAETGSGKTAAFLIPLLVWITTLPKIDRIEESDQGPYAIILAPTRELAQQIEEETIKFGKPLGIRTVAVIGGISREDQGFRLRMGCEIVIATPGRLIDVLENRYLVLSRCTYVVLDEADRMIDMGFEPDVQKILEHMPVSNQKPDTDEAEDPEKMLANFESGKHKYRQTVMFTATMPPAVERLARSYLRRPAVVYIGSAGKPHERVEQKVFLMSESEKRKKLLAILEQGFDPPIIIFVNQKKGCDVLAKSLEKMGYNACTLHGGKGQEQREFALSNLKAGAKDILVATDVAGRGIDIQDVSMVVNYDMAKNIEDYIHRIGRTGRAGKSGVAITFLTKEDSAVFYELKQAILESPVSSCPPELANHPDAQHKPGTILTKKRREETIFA
UniProt O43143: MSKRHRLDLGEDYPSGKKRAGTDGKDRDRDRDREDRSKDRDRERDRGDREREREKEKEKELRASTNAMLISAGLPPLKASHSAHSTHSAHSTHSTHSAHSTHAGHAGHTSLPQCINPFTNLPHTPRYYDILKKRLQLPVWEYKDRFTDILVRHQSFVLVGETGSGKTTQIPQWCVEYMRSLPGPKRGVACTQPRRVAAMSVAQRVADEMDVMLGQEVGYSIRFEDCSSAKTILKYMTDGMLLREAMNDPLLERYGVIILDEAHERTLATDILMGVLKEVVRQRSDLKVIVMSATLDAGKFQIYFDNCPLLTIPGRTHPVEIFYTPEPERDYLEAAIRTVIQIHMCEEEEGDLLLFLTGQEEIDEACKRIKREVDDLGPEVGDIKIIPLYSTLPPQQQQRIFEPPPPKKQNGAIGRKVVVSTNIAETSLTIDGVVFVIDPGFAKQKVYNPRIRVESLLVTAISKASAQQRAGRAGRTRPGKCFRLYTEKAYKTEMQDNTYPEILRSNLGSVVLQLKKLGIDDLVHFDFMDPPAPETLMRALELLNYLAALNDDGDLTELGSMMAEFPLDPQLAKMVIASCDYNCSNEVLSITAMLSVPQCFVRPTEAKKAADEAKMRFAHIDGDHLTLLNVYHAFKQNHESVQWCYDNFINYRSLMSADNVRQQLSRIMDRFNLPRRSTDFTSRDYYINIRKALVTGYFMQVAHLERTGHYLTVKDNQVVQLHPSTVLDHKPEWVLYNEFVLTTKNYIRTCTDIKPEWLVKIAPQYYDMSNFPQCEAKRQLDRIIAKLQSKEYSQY

These are yes or no findings as the source states them, for the method shown. Binding seen in cells or lysates may run through a third protein. A yes stands for co-enrichment or nearness to the bait. Other partners may have been found.

In the experiment the target is T1, Splicing factor 1 (SF1) (human (endogenous in HeLa)) (UniProt Q15637).
T1 sequence: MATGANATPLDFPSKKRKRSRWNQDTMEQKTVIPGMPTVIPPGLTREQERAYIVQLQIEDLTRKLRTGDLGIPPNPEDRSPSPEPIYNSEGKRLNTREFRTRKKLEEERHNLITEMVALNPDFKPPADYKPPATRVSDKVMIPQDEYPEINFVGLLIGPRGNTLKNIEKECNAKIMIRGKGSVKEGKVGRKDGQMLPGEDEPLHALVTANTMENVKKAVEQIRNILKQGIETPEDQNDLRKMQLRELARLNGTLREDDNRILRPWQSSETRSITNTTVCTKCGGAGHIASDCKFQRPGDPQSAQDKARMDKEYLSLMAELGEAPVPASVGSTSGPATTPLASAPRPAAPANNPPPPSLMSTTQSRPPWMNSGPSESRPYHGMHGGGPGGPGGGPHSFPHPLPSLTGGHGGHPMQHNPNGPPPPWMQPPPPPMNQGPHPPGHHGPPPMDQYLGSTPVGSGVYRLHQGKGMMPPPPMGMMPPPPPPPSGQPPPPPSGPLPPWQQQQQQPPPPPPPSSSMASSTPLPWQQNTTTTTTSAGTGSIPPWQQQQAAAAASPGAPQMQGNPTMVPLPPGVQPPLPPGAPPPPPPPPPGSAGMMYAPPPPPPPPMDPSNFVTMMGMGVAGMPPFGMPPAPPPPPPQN
As to the kind of experiment: affinity purification with mass spectrometry; anti-SF1 on Protein G Sepharose; HeLa cell nuclear extract without or with 0.3 mg/ml RNase A; IP buffer 50 mM Tris-HCl pH 7.9, 100 mM NaCl, 0.05% NP-40, 0.5 mM DTT, 1 h 4°C; 1D PAGE, LC-MSMS; control mouse IgG.

As for BRD2 (from UniProt P25440 1-801), the binding result is reported as “binds”.
CBP80 (from UniProt Q09161 1-790): the binding entry is recorded as “binds”.
The value for CDC5L (from UniProt Q99459 1-802) was “binds”.
Turning to CDK11B (from UniProt P21127 1-795), the binding result is recorded as “binds”.
Regarding CKB (from UniProt P12277 1-381), the binding result was “binds”.
In the case of CYPH (from UniProt O43447 1-177) it was “binds”; in that of EIF3C (from UniProt Q99613 1-913), “binds”; in that of HSPA4L (from UniProt O95757 1-839), “binds”.
In the case of SF3b130 (from UniProt Q15393 1-1217) it was “binds”; in that of SF3b145 (from UniProt Q13435 1-895), “binds”; in that of SF3b155 (from UniProt O75533 1-1304), “binds”.
As for SRPK1 (from UniProt Q96SB4 1-655), the binding result is recorded as “binds”.
On to SRm300 (from UniProt Q9UQ35 1-2752), for which the binding result was “binds”.
The value for Sm-E (from UniProt P62304 1-92) was “binds”; that for Sm-G (from UniProt P62308 1-76) was “binds”; that for TOE1 (from UniProt Q96GM8 1-510) was “binds”.
The value for U1-A (from UniProt P09012 1-282) was “binds”; that for U1–70K (from UniProt P08621 1-437) was “binds”.
In the case of “U2 snRNP-associated SURP motif-containing protein (U2SURP) (from UniProt O15042 1-1029)” it was “binds”; in that of ZFR (from UniProt Q96KR1 1-1074), “binds”; in that of ZNF207 (from UniProt O43670 1-478), “binds”.
For hPRP28 (from UniProt Q9BUQ8 1-820), the binding entry is reported as “binds”.
As for hPRP43 (from UniProt O43143 1-795), the binding result is listed as “binds”.
